Data taken from US5565424A, “Superactive VIP antagonists” (Ramot - University Authority for Applied Research and …, priority 1994, dated 1996).
Entries after “also recorded” stand apart in the source; their conditions may differ. Part of at least one peptide drawing is inferred or uncertain, most often the ends. Non-standard residues stand in square brackets, D forms with d. Residues, ends and D or L forms follow the SMILES beside them. No end group written: not given here. *: point of attachment. Stearoyl = CCCCCCCCCCCCCCCCCC(=O)*; Nle = CCCC[C@H](N)C(=O)O

Tests used:
[1] = tested on: dissociated mouse spinal cord cultures (neurons); assay: Neuronal survival in dissociated spinal cord cultures; format: cell-based
[2] = tested on: VIP receptors present in NSCLC cells (NCI-H838 cells); assay: 125I-VIP binding to VIP receptor containing NSCLC tumor cells; conditions: read-out: IC50, mean concentration required to half maximally inhibit 125I-VIP binding; NCIH383 cells
[3] = tested on: neuroblastoma (NMB) cells; assay: Thymidine incorporation into neuroblastoma (NMB) cells; format: cell-based, human; conditions: FIGS. 9 and 10; 10 μM antagonist, 1 μM VIP in FIG. 9

| Compound | fold more potent than the hybrid VIP antagonist at inducing neuronal cell death [1] | IC50 [2] [nM] | effect on thymidine incorporation / neuroblastoma cell division (in words) [3] | fold more antagonist needed for a similar (maximal) effect than with NL-hybrid VIP antagonist ([1]; FIG. 1) [fold] |
| --- | --- | --- | --- | --- |
| CCCCCCCCCCCCCCCCCC(=O)N[C@@H](CCCCN)C(=O)N1CCC[C@H]1C(=O)N[C@@H](CCCNC(=N)N)C(=O)N[C@@H](CCCNC(=N)N)C(=O)N1CCC[C@H]1C(=O)N[C@@H](Cc1ccc(O)cc1)C(=O)N[C@H](C(=O)N[C@@H](CC(=O)O)C(=O)N[C@@H](CC(N)=O)C(=O)N[C@@H](Cc1ccc(O)cc1)C(=O)N[C@H](C(=O)N[C@@H](CCCNC(=N)N)C(=O)N[C@@H](CC(C)C)C(=O)N[C@@H](CCCNC(=N)N)C(=O)N[C@@H](CCCCN)C(=O)N[C@@H](CCC(N)=O)C(=O)N[C@@H](CCSC)C(=O)N[C@@H](C)C(=O)N[C@H](C(=O)N[C@@H](CCCCN)C(=O)N[C@@H](CCCCN)C(=O)N[C@@H](Cc1ccc(O)cc1)C(=O)N[C@@H](CC(C)C)C(=O)N[C@@H](CC(N)=O)C(=O)N[C@@H](CO)C(=O)N[C@H](C(=O)N[C@@H](CC(C)C)C(=O)N[C@@H](CC(N)=O)C(N)=O)[C@@H](C)CC)C(C)C)[C@@H](C)O)[C@@H](C)O [S-Hybrid VIP Antagonist] (Stearoyl-KPRRPYTDNYTRLRKQMAVKKYLNSILN-NH2) | ten-fold more potent | – | – | – |
| CCCCCCCCCCCCCCCCCC(=O)N[C@@H](CCCCN)C(=O)N1CCC[C@H]1C(=O)N[C@@H](CCCNC(=N)N)C(=O)N[C@@H](CCCNC(=N)N)C(=O)N1CCC[C@H]1C(=O)N[C@@H](Cc1ccc(O)cc1)C(=O)N[C@H](C(=O)N[C@@H](CC(=O)O)C(=O)N[C@@H](CC(N)=O)C(=O)N[C@@H](Cc1ccc(O)cc1)C(=O)N[C@H](C(=O)N[C@@H](CCCNC(=N)N)C(=O)N[C@@H](CC(C)C)C(=O)N[C@@H](CCCNC(=N)N)C(=O)N[C@@H](CCCCN)C(=O)N[C@@H](CCC(N)=O)C(=O)N[C@@H](CCCC)C(=O)N[C@@H](C)C(=O)N[C@H](C(=O)N[C@@H](CCCCN)C(=O)N[C@@H](CCCCN)C(=O)N[C@@H](Cc1ccc(O)cc1)C(=O)N[C@@H](CC(C)C)C(=O)N[C@@H](CC(N)=O)C(=O)N[C@@H](CO)C(=O)N[C@H](C(=O)N[C@@H](CC(C)C)C(=O)N[C@@H](CC(N)=O)C(N)=O)[C@@H](C)CC)C(C)C)[C@@H](C)O)[C@@H](C)O [S-NL-Hybrid VIP Antagonist] (Stearoyl-KPRRPYTDNYTRLRKQ[Nle]AVKKYLNSILN-NH2) | 100 fold | – | – | – |
| KPRRPYTDNYTRLRKQMAVKKYLNSILN-NH2 [Hybrid VIP Antagonist, reference compound] | – | 3000 | potently blocks thymidine incorporation in neuroblastoma cells in a dose dependent manner; also recorded: inhibits VIP-induced neuroblastoma cell division | 10 |
